Results deposited as PubChem BioAssay AID1508597 (Cure First, 2020)

- Assay: 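Knock-downs altering ovarian cancer cell survival with or without PARP inhibitor rucaparib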 (primary screen)
- Cell system: human ovarian carcinoma lines grown from tumours: OCI-P5x (papillary serous) and OCI-C5x (clear cell)
- Reagents: siRNA pool against human genes, 1.25 pmol siRNA per well
- Duration: 72 h or 96 h, depending on the cell culture
- Treatment: rucaparib 20 µM (about IC30) or vehicle, present until read-out
- Detection: 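ATP luminescence measured at 72 or 96 h according to the culture, then normalised and expressed as percent viability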
- Direction: viability, normalised: higher = more viable cells remaining
- Hit rule: 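Active when normalised viability falls below 80 percent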
- Meaning of the calls: active = viability under 80%; inactive = viability 80% or more
Here is a random part of about 2,100 reagents. 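Calls flag viability under 80% in either arm, not effects specific to rucaparib; the reference for percent is not stated.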 Not given: the 100% reference.

target gene | rucaparib or vehicle | cell line | technical replicate | viability, normalised (%) | Outcome
BCL2 (BCL2 apoptosis regulator) | Rucaparib | OCI-C5x (clear cell) | 1 | 88.5 | inactive
BCL2 (BCL2 apoptosis regulator) | Rucaparib | OCI-C5x (clear cell) | 2 | 66.5 | active
BCL2 (BCL2 apoptosis regulator) | Rucaparib | OCI-C5x (clear cell) | 3 | 56.6 | active
BCL2 (BCL2 apoptosis regulator) | Rucaparib | OCI-P5x (serous) | 1 | 73.3 | active
BCL2 (BCL2 apoptosis regulator) | Rucaparib | OCI-P5x (serous) | 2 | 86.8 | inactive
BCL2 (BCL2 apoptosis regulator) | Rucaparib | OCI-P5x (serous) | 3 | 79 | active
BCL2 (BCL2 apoptosis regulator) | Vehicle | OCI-C5x (clear cell) | 1 | 52.7 | active
BCL2 (BCL2 apoptosis regulator) | Vehicle | OCI-C5x (clear cell) | 2 | 64.8 | active
BCL2 (BCL2 apoptosis regulator) | Vehicle | OCI-C5x (clear cell) | 3 | 62.6 | active
BCL2 (BCL2 apoptosis regulator) | Vehicle | OCI-P5x (serous) | 1 | 63.5 | active
BCL2 (BCL2 apoptosis regulator) | Vehicle | OCI-P5x (serous) | 2 | 76.2 | active
BCL2 (BCL2 apoptosis regulator) | Vehicle | OCI-P5x (serous) | 3 | 76.4 | active
CHD2 (chromodomain helicase DNA binding protein 2) | Rucaparib | OCI-C5x (clear cell) | 1 | 67.6 | active
CHD2 (chromodomain helicase DNA binding protein 2) | Rucaparib | OCI-C5x (clear cell) | 2 | 52.1 | active
CHD2 (chromodomain helicase DNA binding protein 2) | Rucaparib | OCI-C5x (clear cell) | 3 | 59.4 | active
CHD2 (chromodomain helicase DNA binding protein 2) | Rucaparib | OCI-P5x (serous) | 1 | 89.1 | inactive
CHD2 (chromodomain helicase DNA binding protein 2) | Rucaparib | OCI-P5x (serous) | 2 | 82.9 | inactive
CHD2 (chromodomain helicase DNA binding protein 2) | Rucaparib | OCI-P5x (serous) | 3 | 82.4 | inactive
CHD2 (chromodomain helicase DNA binding protein 2) | Vehicle | OCI-C5x (clear cell) | 1 | 33.5 | active
CHD2 (chromodomain helicase DNA binding protein 2) | Vehicle | OCI-C5x (clear cell) | 2 | 59.5 | active
CHD2 (chromodomain helicase DNA binding protein 2) | Vehicle | OCI-C5x (clear cell) | 3 | 59.1 | active
CHD2 (chromodomain helicase DNA binding protein 2) | Vehicle | OCI-P5x (serous) | 1 | 63 | active
CHD2 (chromodomain helicase DNA binding protein 2) | Vehicle | OCI-P5x (serous) | 2 | 68.6 | active
CHD2 (chromodomain helicase DNA binding protein 2) | Vehicle | OCI-P5x (serous) | 3 | 79.1 | active

The list goes on, starting with the last 2 of the part before.
target gene | rucaparib or vehicle | cell line | technical replicate | viability, normalised (%) | Outcome
CHD2 (chromodomain helicase DNA binding protein 2) | Vehicle | OCI-P5x (serous) | 2 | 68.6 | active
CHD2 (chromodomain helicase DNA binding protein 2) | Vehicle | OCI-P5x (serous) | 3 | 79.1 | active
PET117 (PET117 cytochrome c oxidase chaperone) | Rucaparib | OCI-C5x (clear cell) | 1 | 41.6 | active
PET117 (PET117 cytochrome c oxidase chaperone) | Rucaparib | OCI-C5x (clear cell) | 2 | 42.4 | active
PET117 (PET117 cytochrome c oxidase chaperone) | Rucaparib | OCI-C5x (clear cell) | 3 | 41.1 | active
PET117 (PET117 cytochrome c oxidase chaperone) | Rucaparib | OCI-P5x (serous) | 1 | 47.8 | active
PET117 (PET117 cytochrome c oxidase chaperone) | Rucaparib | OCI-P5x (serous) | 2 | 47.2 | active
PET117 (PET117 cytochrome c oxidase chaperone) | Rucaparib | OCI-P5x (serous) | 3 | 52.1 | active
PET117 (PET117 cytochrome c oxidase chaperone) | Vehicle | OCI-C5x (clear cell) | 1 | 38.8 | active
PET117 (PET117 cytochrome c oxidase chaperone) | Vehicle | OCI-C5x (clear cell) | 2 | 55.4 | active
PET117 (PET117 cytochrome c oxidase chaperone) | Vehicle | OCI-C5x (clear cell) | 3 | 39.7 | active
PET117 (PET117 cytochrome c oxidase chaperone) | Vehicle | OCI-P5x (serous) | 1 | 71.6 | active
PET117 (PET117 cytochrome c oxidase chaperone) | Vehicle | OCI-P5x (serous) | 2 | 75.1 | active
PET117 (PET117 cytochrome c oxidase chaperone) | Vehicle | OCI-P5x (serous) | 3 | 74 | active
DPH2 (diphthamide biosynthesis 2) | Rucaparib | OCI-C5x (clear cell) | 1 | 49.4 | active
DPH2 (diphthamide biosynthesis 2) | Rucaparib | OCI-C5x (clear cell) | 2 | 41.6 | active
DPH2 (diphthamide biosynthesis 2) | Rucaparib | OCI-C5x (clear cell) | 3 | 36.4 | active
DPH2 (diphthamide biosynthesis 2) | Rucaparib | OCI-P5x (serous) | 1 | 68.6 | active
DPH2 (diphthamide biosynthesis 2) | Rucaparib | OCI-P5x (serous) | 2 | 66.8 | active
DPH2 (diphthamide biosynthesis 2) | Rucaparib | OCI-P5x (serous) | 3 | 75.9 | active
DPH2 (diphthamide biosynthesis 2) | Vehicle | OCI-C5x (clear cell) | 1 | 59.1 | active
DPH2 (diphthamide biosynthesis 2) | Vehicle | OCI-C5x (clear cell) | 2 | 61.1 | active
DPH2 (diphthamide biosynthesis 2) | Vehicle | OCI-C5x (clear cell) | 3 | 46.7 | active
DPH2 (diphthamide biosynthesis 2) | Vehicle | OCI-P5x (serous) | 1 | 65.8 | active
DPH2 (diphthamide biosynthesis 2) | Vehicle | OCI-P5x (serous) | 2 | 66 | active
DPH2 (diphthamide biosynthesis 2) | Vehicle | OCI-P5x (serous) | 3 | 67.6 | active
ERBB4 (erb-b2 receptor tyrosine kinase 4) | Rucaparib | OCI-C5x (clear cell) | 1 | 48.3 | active
ERBB4 (erb-b2 receptor tyrosine kinase 4) | Rucaparib | OCI-C5x (clear cell) | 2 | 43.1 | active
ERBB4 (erb-b2 receptor tyrosine kinase 4) | Rucaparib | OCI-C5x (clear cell) | 3 | 40.8 | active
ERBB4 (erb-b2 receptor tyrosine kinase 4) | Rucaparib | OCI-P5x (serous) | 1 | 60.4 | active
ERBB4 (erb-b2 receptor tyrosine kinase 4) | Rucaparib | OCI-P5x (serous) | 2 | 68.1 | active
ERBB4 (erb-b2 receptor tyrosine kinase 4) | Rucaparib | OCI-P5x (serous) | 3 | 64.4 | active
ERBB4 (erb-b2 receptor tyrosine kinase 4) | Vehicle | OCI-C5x (clear cell) | 1 | 74.6 | active
ERBB4 (erb-b2 receptor tyrosine kinase 4) | Vehicle | OCI-C5x (clear cell) | 2 | 52.5 | active
ERBB4 (erb-b2 receptor tyrosine kinase 4) | Vehicle | OCI-C5x (clear cell) | 3 | 60.6 | active
ERBB4 (erb-b2 receptor tyrosine kinase 4) | Vehicle | OCI-P5x (serous) | 1 | 66.7 | active
ERBB4 (erb-b2 receptor tyrosine kinase 4) | Vehicle | OCI-P5x (serous) | 2 | 66.2 | active
ERBB4 (erb-b2 receptor tyrosine kinase 4) | Vehicle | OCI-P5x (serous) | 3 | 62.2 | active
